The assay deals with T1, BMP6 (UniProt P22004 382-513, limits assumed).
T1 sequence (looked up): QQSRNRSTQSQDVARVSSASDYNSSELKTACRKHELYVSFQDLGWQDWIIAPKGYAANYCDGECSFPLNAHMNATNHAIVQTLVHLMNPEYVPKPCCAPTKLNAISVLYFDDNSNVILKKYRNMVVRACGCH
Kind of assay: SPR (Biacore), 37 C. Background: In SPR one partner is held on a chip, and binding of the other changes the refractive index at the surface.

Changes are numbered by the printed parent chain. In names and notes the source's numbering stands. Results are given in words; binding and its absence hold for the method and conditions named. Some entries that bind do so weakly or less than the wild type. Tags and fused reporters may be left off the sequences shown.

B1: ActRIIB-Fc:ActRIIB(L79E)-Fc heterodimer (Fc fusion)
chain 1: GRGEAETRECIYYNANWELERTNQSGLERCEGEQDKRLHCYASWRNSSGTIELVKKGCWEDDFNCYDRQECVATEENPQVYFCCCEGNFCNERFTHLPEAGGPEVTYEPPPTAPT
chain 2: B1 chain 1 with E60L
notes: also called ActRIIB-Fc:ActRIIB(L79E)-Fc heteromer; not shown: linker and engineered G1Fc; linker and complementary engineered G1Fc
On to B1, for which the binding result is listed as “binds”.

The values are drawn from patent publication US20200055919A1 (ACCELERON PHARMA, published 2020).
